These results are taken from publication PMC7601862.

These are yes or no findings as the source states them, for the method shown. Binding seen in cells or lysates may run through a third protein.

Assay [1] deals with tumor suppressor p53 (human (endogenous in MESO924, MESO257, MESO428)) (UniProt P04637). The experiment in a line: co-IP; 1 mg lysate of MESO924, MESO257 or MESO428 (1% NP-40 lysis buffer), preabsorbed with protein G beads; 2 ug p53 or AXL antibody 2 h at 4 °C, sepharose-protein G overnight at 4 °C; AXL and p53 immunoblotting; normal mouse IgG as control IP. Background: A western blot detects proteins with antibodies after separation by electrophoresis.

Assay [2] deals with AXL receptor tyrosine kinase (human (endogenous in MESO924, MESO257, MESO428)) (UniProt P30530). The description is as above.

Regarding “AXL receptor tyrosine kinase (from UniProt P30530-2 26-885)”, the binding result in assay [1] is recorded as “no binding”. Take “tumor suppressor p53 (from UniProt P04637-1 1-393)”: in assay [2], the binding entry was “no binding”.
